# Measurements from PubChem BioAssay AID540276 (National Center for Advancing Translational Sciences (NCATS), 2011).
# Several values for one entry are separate records, joined by “and”; a condition that tells them apart may be missing. Equal entries are not always repeated. Among all 300,000 compounds or so, about 5,400 (1.8%) were called active. Inconclusive results, whose numbers are uncertain, are shown with a selection of clear calls. The call rests on the fitted dose curve; tested in HEK293 cells. Potencies of inconclusive entries are doubtful fits and often do not repeat.
# Experiment: qHTS for inhibitors of binding or entry into cells for Marburg Virus
# Conditions: Marburg virus pseudotyped entry inhibition, cell reporter; activity change, negative = inhibition: at 37.8 µM (top of the series) unless noted
# On the % scale 0 is the no-effect control and ±100 the full control effect; potency means the concentration at half of the fitted maximal effect.
SMILES,"activity change, negative = inhibition",Potency
O=C(CSc1nnc(NC2CCCCC2)s1)NC1CCS(=O)(=O)C1 (stereo not drawn),inactive: 7.91%,–
COc1cc(NC(=O)CCc2c(C)nc3c(-c4ccc(F)cc4)c(C)nn3c2C)cc(OC)c1OC,inactive: 18.2% [at 46.1 µM],–
CCCCCCN1CCN(C2CN(Cc3cn(Cc4ccc(C(F)(F)F)cc4)nn3)S(=O)(=O)C2)CC1 (stereo not drawn),–,"inconclusive: 31.5 µM [inhibitor, single point]"
Cc1ccc(C)c(N2CCN(C(=O)CCS(=O)(=O)c3cc(Br)cc4c3N(C(=O)C3CC3)CC4)CC2)c1,–,"inconclusive: 1.58 µM [inhibitor, single point]"
Cc1cc2c(=O)[nH]c(Cc3ccccc3)nc2s1,–,"inconclusive: 3.55 µM [activator, partial curve, poor fit]"
Cc1nn(-c2ccccc2)c2sc(C(=O)Nc3cccc(Cl)c3)cc12,inactive: 1.71% [at 46.1 µM],–
Cc1cc(C(=O)N(C)Cc2ccc(Br)cc2)no1,–,"inconclusive: 35.5 µM [inhibitor, single point]"
O=C(Cn1nnc(-c2cccs2)n1)N1CCOCC1,–,"inconclusive: 15.8 µM [activator, partial curve, poor fit]"
c1ccc2oc(-c3ccc4nc[nH]c4c3)nc2c1,–,"inconclusive: 35.5 µM [inhibitor, single point]"
N=c1n(CC(=O)c2cccc([N+](=O)[O-])c2)c2ccccc2n1Cc1ccccc1,–,"inconclusive: 35.5 µM [inhibitor, single point]"
Cc1ccc[n+](CC(=O)Nc2ccc([N+](=O)[O-])cc2Cl)c1,–,"inconclusive: 0.0046 µM [inhibitor, full curve, poor fit]"
CCC(=O)N1CCc2cc(CNS(=O)(=O)c3ccc(C(C)C)cc3)ccc21,–,"inconclusive: 15.8 µM [inhibitor, single point]"
COc1cccc(OCc2nc(-c3cccc([N+](=O)[O-])c3)no2)c1,inactive: 4.58% [at 46.1 µM],–
CCOc1cc(S(=O)(=O)Nc2ccccc2CC)ccc1Cl,inactive: -26.4%,–
CN(C)C(=O)c1ccc(Nc2nc(-c3cccs3)nc3ccccc23)cc1,–,"inconclusive: 10 µM [inhibitor, partial curve, poor fit]"
COCc1cc(C)nc2sc(C(=O)Nc3ccc(C(C)=O)cc3)c(N)c12,–,"inconclusive: 10 µM [activator, partial curve, poor fit]"
CC(=O)c1ccc(NC(=O)COc2ccc3c(c2)OCO3)cc1,inactive: 16.3% [at 46.1 µM],–
O=C(CSc1nnc2ccccn12)NNC(=O)c1cccc(Cl)c1,inactive: -5.71%,–
COc1ccc(Nc2cc(C)nc(N3CCOCC3)n2)cc1,–,"inconclusive: 4.47 µM [inhibitor, partial curve, poor fit]"
O=C(C1CCN(S(=O)(=O)c2ccc3ccccc3c2)CC1)N1CCN(c2ncccn2)CC1,–,"inconclusive: 11.2 µM [inhibitor, partial curve]"
CCOC(=O)c1cc(-c2ccccc2)sc1NC(=O)CCN1C(=O)c2ccccc2C1=O,inactive: 16.6%,–
Cc1nc2c3ccccc3nc(NNC(=O)CCC(=O)N3CCN(c4cc(Cl)ccc4C)CC3)n2n1,–,"inconclusive: 1 µM [inhibitor, full curve, poor fit]"
O=[N+]([O-])C1=CC=C2C(=NC3(CCCCC3)N2O)C1=NCCO,–,"inconclusive: 0.708 µM [inhibitor, partial curve, poor fit]"

SMILES,"activity change, negative = inhibition",Potency
COc1cccc(/C=N/NC(=O)CNC(=O)c2cccnc2)c1O,–,"inconclusive: 22.4 µM [inhibitor, partial curve, poor fit]"
Cc1ccc(S(=O)(=O)Nc2nc3cc(C)c(C)cc3[nH]2)cc1,–,"inconclusive: 35.5 µM [inhibitor, single point]"
COc1ccccc1NC(=O)CSc1n[nH]c(-c2ccccn2)n1,–,"inconclusive: 25.1 µM [inhibitor, single point]"
Cc1ccc(CSCC(=O)N(C)CC(=O)Nc2ccc(Cl)c(Cl)c2)cc1,inactive: -6.52%,–
COc1ccc(N2CCN(C3CCCN(Cc4cccc(C)c4)C3)CC2)cc1 (stereo not drawn),–,"inconclusive: 7.94 µM [inhibitor, partial curve, poor fit]"
Fc1ccccc1NC(=S)Nc1ccc(Br)cc1,inactive: 8.03%,–
Nc1nc(SCC(=O)c2ccc(Br)s2)n[nH]1,–,"inconclusive: 3.55 µM [activator, single point]"
CCOC(=O)C1(CCOc2ccccc2)CCN(Cc2cnc(C)[nH]2)CC1,–,"inconclusive: 7.08 µM [inhibitor, partial curve, poor fit]"
O=C(Nc1nc(-c2ccccc2)cs1)c1ccc(N2CCOCC2)c([N+](=O)[O-])c1,–,"inconclusive: 4.47 µM [inhibitor, full curve, poor fit]"
COc1cc2c(cc1OC)C1(Nc3c-2c(Cc2ccccc2)nn3-c2ccccc2)C(=O)Nc2ccccc21 (stereo not drawn),–,"inconclusive: 35.5 µM [inhibitor, single point]"
CCc1ccc(-c2cc(C)no2)cc1S(=O)(=O)N1CCN(c2cc(C)ccc2C)CC1,–,"inconclusive: 11.2 µM [inhibitor, single point]"
c1ccc(CN2CCN(c3nc(NCc4ccco4)c4ccccc4n3)CC2)cc1,–,"inconclusive: 35.5 µM [inhibitor, single point]"
CCC(=O)Nc1ccc(C(=O)Nc2cccnc2)cc1,inactive: 1.89%,–
CCCNC(=O)CSc1c2c(nc3ccc(Cl)cc13)CCCC2,inactive: -9.39% [at 46.1 µM],–
CCOC(=O)c1cc2c(=O)n3ccccc3nc2n(Cc2ccco2)c1=NC(=O)c1cccc(C)c1,–,"inconclusive: 35.5 µM [inhibitor, single point]"
CCN(c1ccccc1)S(=O)(=O)c1ccc(Cl)c(C(=O)NCCc2ccc(OC)cc2)c1,–,"inconclusive: 35.5 µM [inhibitor, single point]"
c1ccc2c(SCc3cn4ccccc4n3)nncc2c1,inactive: 1.22%,–
Cc1ccc(NC(=O)Cn2cc(C(=O)c3ccco3)c3ccccc32)cc1C,–,"inconclusive: 11.2 µM [inhibitor, partial curve, poor fit]"
COC(=O)Cn1cnc2scc(-c3ccc(C)cc3)c2c1=O,–,"inconclusive: 3.55 µM [inhibitor, partial curve, poor fit]"
COc1ccc(N(C)C(=O)c2ccc3nc(-c4ccccc4)c(-c4ccccc4)nc3c2)cc1,–,"inconclusive: 2.82 µM [inhibitor, partial curve, poor fit]"
O=C(Nc1sc2c(c1C(=O)O)CCCC2)c1cccs1,–,active: 9.2 µM
Cc1onc(-c2c(Cl)cccc2Cl)c1C(=O)c1ccccc1,–,"inconclusive: 35.5 µM [inhibitor, single point]"
O=C(N/N=C/c1cccnc1)c1ccc(Cn2cc([N+](=O)[O-])cn2)o1,inactive: 14.3% [at 46.1 µM],–

# Laid out differently: results already given.
SMILES	activity change, negative = inhibition	Potency
CCCCCCN1CCN(C2CN(Cc3cn(Cc4ccc(C(F)(F)F)cc4)nn3)S(=O)(=O)C2)CC1 (stereo not drawn)	–	inconclusive: 31.5 µM [inhibitor, single point]
Cc1ccc(C)c(N2CCN(C(=O)CCS(=O)(=O)c3cc(Br)cc4c3N(C(=O)C3CC3)CC4)CC2)c1	–	inconclusive: 1.58 µM [inhibitor, single point]
Cc1cc2c(=O)[nH]c(Cc3ccccc3)nc2s1	–	inconclusive: 3.55 µM [activator, partial curve, poor fit]
Cc1nn(-c2ccccc2)c2sc(C(=O)Nc3cccc(Cl)c3)cc12	inactive: 1.71% [at 46.1 µM]	–
Cc1cc(C(=O)N(C)Cc2ccc(Br)cc2)no1	–	inconclusive: 35.5 µM [inhibitor, single point]
O=C(Cn1nnc(-c2cccs2)n1)N1CCOCC1	–	inconclusive: 15.8 µM [activator, partial curve, poor fit]
c1ccc2oc(-c3ccc4nc[nH]c4c3)nc2c1	–	inconclusive: 35.5 µM [inhibitor, single point]
N=c1n(CC(=O)c2cccc([N+](=O)[O-])c2)c2ccccc2n1Cc1ccccc1	–	inconclusive: 35.5 µM [inhibitor, single point]
Cc1ccc[n+](CC(=O)Nc2ccc([N+](=O)[O-])cc2Cl)c1	–	inconclusive: 0.0046 µM [inhibitor, full curve, poor fit]
CCC(=O)N1CCc2cc(CNS(=O)(=O)c3ccc(C(C)C)cc3)ccc21	–	inconclusive: 15.8 µM [inhibitor, single point]
COc1cccc(OCc2nc(-c3cccc([N+](=O)[O-])c3)no2)c1	inactive: 4.58% [at 46.1 µM]	–
CCOc1cc(S(=O)(=O)Nc2ccccc2CC)ccc1Cl	inactive: -26.4%	–
CN(C)C(=O)c1ccc(Nc2nc(-c3cccs3)nc3ccccc23)cc1	–	inconclusive: 10 µM [inhibitor, partial curve, poor fit]
COCc1cc(C)nc2sc(C(=O)Nc3ccc(C(C)=O)cc3)c(N)c12	–	inconclusive: 10 µM [activator, partial curve, poor fit]
CC(=O)c1ccc(NC(=O)COc2ccc3c(c2)OCO3)cc1	inactive: 16.3% [at 46.1 µM]	–
O=C(CSc1nnc2ccccn12)NNC(=O)c1cccc(Cl)c1	inactive: -5.71%	–
COc1ccc(Nc2cc(C)nc(N3CCOCC3)n2)cc1	–	inconclusive: 4.47 µM [inhibitor, partial curve, poor fit]
O=C(C1CCN(S(=O)(=O)c2ccc3ccccc3c2)CC1)N1CCN(c2ncccn2)CC1	–	inconclusive: 11.2 µM [inhibitor, partial curve]
CCOC(=O)c1cc(-c2ccccc2)sc1NC(=O)CCN1C(=O)c2ccccc2C1=O	inactive: 16.6%	–

# Following part.

SMILES,"activity change, negative = inhibition",Potency
CCC1CCCCN1Cc1c(O)ccc2c(=O)c(-c3ccccc3)coc12 (stereo not drawn),–,"inconclusive: 35.5 µM [inhibitor, single point]"
CCOc1ccc(N(C(=O)CNC(=O)c2ccco2)C(C(=O)NC2CCCC2)c2ccco2)cc1 (stereo not drawn),inactive: 20.9% [at 46.1 µM],–
O=C1NC(=O)c2cc(Nc3ccccc3)c(Nc3ccccc3)cc21,–,active: 12.6 µM and active: 23.1 µM
CCOc1ccc(NS(=O)(=O)c2ccc(C(=O)NCC3(N(C)C)CCCCC3)cc2)cc1,–,"inconclusive: 7.94 µM [inhibitor, partial curve, poor fit]"
CC(/C=N/n1c(-c2ccco2)n[nH]c1=S)=C\c1ccco1,–,"inconclusive: 0.562 µM [inhibitor, partial curve, poor fit]"
Cc1ccc(NC(=O)CN(C)CCOc2ccccc2)c([N+](=O)[O-])c1,inactive: 0.0926% [at 46.1 µM],–
O=C(CC12CC3CC(CC(Br)(C3)C1)C2)Nc1nncs1,inactive: 23.2% [at 46.1 µM],–
CCN(CC)S(=O)(=O)c1cc(NC(=O)C2CCN(c3ncnc4sc(C)c(C)c34)CC2)ccc1Cl,–,active: 3.55 µM
CCOC(=O)C1(CCc2ccccc2)CCN(Cc2ccc3c(c2)OCCO3)CC1,–,"inconclusive: 22.4 µM [inhibitor, single point]"
Cc1nn(-c2ccccc2)c(N)c1C(O)(C(F)(F)F)C(F)(F)F,–,"inconclusive: 1.03 µM [inhibitor, single point]"
CC(C)C(=O)Nc1cccc(-c2cn3ccsc3n2)c1,inactive: 18.4%,–
Cc1ccc(NC(=O)CN(C)C(=O)c2ccccn2)cc1,–,"inconclusive: 3.16 µM [inhibitor, single point]"
Cc1ccc(CSCCNC(=O)C2CCN(S(=O)(=O)Cc3ccccc3)CC2)cc1,–,"inconclusive: 0.794 µM [activator, full curve, poor fit]"
Cc1cccc(N2CCN(C(=O)c3cccc(N4C(=O)C5C6C=CC(C6)C5C4=O)c3)CC2C)c1 (stereo not drawn),inactive: -17.3% [at 46.1 µM],–
CC(/C=C/c1ccccc1)=N\NC(=O)c1cc(C)[nH]n1,inactive: 27.7%,–
CCOc1ccc(/C=C/C(=O)Oc2ccc(OC)cc2)cc1,inactive: 8.84%,–
O=C(CCc1nnc(Cc2ccc(-c3ccccc3)cc2)o1)NCC1CC1,–,"inconclusive: 3.16 µM [activator, single point]"
O=C(OC1CO[C@H]2O[C@@H]1[C@H](OC(=O)c1ccccc1)[C@H]2OC(=O)c1ccccc1)c1ccccc1 (stereo partly drawn),–,"inconclusive: 6.31 µM [inhibitor, single point]"
O=C(CNC(=O)c1cccs1)OCC(=O)c1ccc([N+](=O)[O-])cc1,inactive: -24.1% [at 46.1 µM],–
COc1ccccc1NC(=O)CSc1ccc(-c2ccccn2)nn1,–,"inconclusive: 25.1 µM [inhibitor, single point]"
O=C(c1ccccc1-n1cccn1)N1CCc2c([nH]c3ccccc23)C1c1ccccn1 (stereo not drawn),–,"inconclusive: 2.24 µM [inhibitor, partial curve, poor fit]"
Cc1cc(OC(C)C(=O)N2CCC(c3nc4ccccc4o3)CC2)ccc1Cl (stereo not drawn),inactive: -4.4% [at 46.1 µM],–
